Consider three molecules from patent US20110165066A1.

Sequences of proteins named here, by UniProt entry; tags and fusion partners are left off. A change or cut given only in a name is not applied to a line headed by its entry. A line that says so, or that is headed by a name, gives the form on record, which may keep a tag or linker.
cynomolgus IL-13 (Q0PW92, form named): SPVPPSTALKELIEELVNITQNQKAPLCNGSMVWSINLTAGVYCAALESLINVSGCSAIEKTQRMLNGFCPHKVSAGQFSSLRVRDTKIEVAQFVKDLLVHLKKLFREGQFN

Changes are numbered by the printed parent chain. No constants are given. Whether binding was seen depends on the method and setting. Some entries that bind do so weakly or less than the wild type.

The test has as its target cynomolgus IL-13 (cynomolgus) (UniProt Q0PW92). In words: SPR (Biacore).

B1: 13C5.5L2E (antibody, V domains shown)
VH: EVTLRESGPGLVKPTQTLTLTCTLYGFSLSTSDMGVDWIRQPPGKGLEWLAHIWWDDVKRYNPALKSRLTISKDTSKNQVVLKLTSVDPVDTATYYCARTVSSGYIYYAMDYWGQGTLVTVSS
VL: DIQMTQSPSSLSASVGDRVTISCRASQDIRNYLNWYQQKPGKAPKLLIFYTSMKPRGVPSRFSGSGSGTDYTLTISSLQPEDIATYYCQQGNTLPLTFGGGTKVEIK
For the molecule B1, the binding result is “binds”.

B2: 13C5.5L2EL3F (antibody, V domains shown)
VH: B1 VH
VL: B1 VL with N92L, L94P
For the molecule B2, the binding entry is “binds”.

B3: 13C5.5L3F (antibody, V domains shown)
VH: B1 VH
VL: B1 VL with M53K, K54L, P55H, R56S, N92L, L94P
Turning to B3, the binding entry is listed as “binds”.
